Data from the supplement of paper PMC10338343.
± gives the standard deviation. Some of the results follow. Many entries were measured with a wide error.

system: EfPiwi piRISC loaded with L1MC piRNA (26 nt); experiment: pre-steady-state target cleavage rate (min^-1); guide: L1MC piRNA 5'p-UAACUAAAUACUAUGCAAGCUGUAGG; MIWI and MILI are mouse PIWI proteins and EfPiwi is from a freshwater sponge; tags in brackets are library labels; higher = faster piRNA-guided slicing of the target; conditions: auxiliary factor: 500 nM Ephydatia muelleri Gtsf1
Outline: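 At 33 °C in HEPES–potassium acetate buffer, a transcribed, DNA-blocked target RNA library […] was exposed for 0–8 or 0–960 min to 1 nM active affinity-purified piRISC carrying a single synthetic guide, with or without 500 nM GTSF1 partner protein. Uncleaved targets were sequenced and normalised to depth and to weakly complementary targets. With three trials pooled and k3 capped at 0.0001 min^-1, a burst-and-steady-state fit produced the pre-steady-state cleavage rate.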

Sequence | pre-steady-state target cleavage rate
UCCUGGAUCAGCUUGCAUACAAUUUAGUUA | 0.00126 ± 0.0034
UCCUGGAACAGCUUGCAUACAUUUUAGUAA | 0.000465 ± 0.0064
UCCUGGAUGAGCUUGCCAUAGUAUUUAGUUA | 0.0035 ± 0.0026
UCCUCCUACAGGAAGCAUAGUAUUUAGAAA | 0.00203 ± 0.0023
UCCUGGAUGAGCUUGCAUAGAUUUUAGAAA | 0.000573 ± 0.0054
UCCUGCUACAGCUUGCAUAGUUAAUACAAA | 0.00254 ± 0.0059
UCCUGCUACAGCUUGCAUAGUAUUAAGAUA | 0.00501 ± 0.0016
UCCUCCUACAGCUUGCAUAGUAAAAUCAAA | 0.0042 ± 0.0034
UCCUGGAACAGCUUGCAAUGUAUUUACAAA | 0.000369 ± 0.0099
UCCUCCUACAGCUACGAUAGUAUUUUCAAA | 0.00114 ± 0.007
UCCUGCUACAGGAAGCAUAGUAUUUACAAA | 0.000346 ± 0.011
UCCUGCUACAGCUUGCAUACAUAAAUCAAA [g12:g25:cont:t1A] | 0.000657 ± 0.011
UCCUGGUACAGCUUGCAUACAAUUUAGAAA | 0.00285 ± 0.0029
UCCUGGAUGUCGAAGCAUAGUAUUUAGCUUA | 0.000216 ± 0.016
UCCUGGUACAGCUUGCAUAGUAAAUAGAAA | 0.0022 ± 0.0033
UCCUGGAUGUGCUUGCAUAGUAUUUUCAAA | 0.00086 ± 0.0043
UCCUGGUACAGCUUGCAUACAAUUUAGUUA | 0.00099 ± 0.0051
UCCUGGAUGAGCUUGCAUAGUAAUUAGAAA | 0.00162 ± 0.0032
UCCUGGUACAGCUUCCAUAGUAAUUAGUUA | 0.00126 ± 0.0032
UCCUGGUACAGCUUGCAUAGUAUAAAGAAA | 0.00202 ± 0.0038
UCCUGGAUCACGAUGCAUAGUAUUUUCAAA | 0.00163 ± 0.0068
UCCUGGAUGUCGAAGCACAGUAUUUAGUUA | 0.000824 ± 0.007
UCCUGGAUGUCGAUGCAUAGCUAUUUAGUUA | 0.000238 ± 0.014
UCCUGGAUGUGCUUGCAUAGUAAAAAGUAA | 0.000346 ± 0.015

Some of the entries so far, with tabs.
Sequence	pre-steady-state target cleavage rate
UCCUGGAUGAGCUUGCAUAGAUUUUAGAAA	0.000573 ± 0.0054
UCCUGGAUGAGCUUGCAUAGUAAUUAGAAA	0.00162 ± 0.0032
